Results: PubChem BioAssay AID493014 (National Center for Advancing Translational Sciences (NCATS), 2011)
The whole screen tested about 340,000 compounds, of which about 170 (0.05%) were called active. This list was built around the results that the source calls inconclusive (neither active nor inactive); the mix of calls is not that of the screen. Calls come from the whole dose curve; as a rule, active = well fitted inhibition curve with a large enough effect in the signal ratio, with a control signal flat (not every such curve was filed as active); inconclusive = small, poorly fitted or top-dose-only effect, or effect the other way, or a change in a side signal; inactive = flat fitted curve, though single readings scatter; the % refers to the signal ratio. Where the call is inconclusive, the potency comes from a doubtful curve fit.

Experiment: qHTS Assay to Find Inhibitors of Chronic Active B-Cell Receptor Signaling;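 for activity change, negative = inhibition: plate controls were basal doxycycline-induced cells for no effect and cells given 10 µM MG132 for full effect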
Conditions: ABC-DLBCL IkBa-CBG/CBR reporter, luminescence ratio (green luciferase fused to IkBa over red control in TMD8 lymphoma cells), 4 h; activity change, negative = inhibition: at 46.1 µM (top of the series) unless noted
In short: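 Concentration-response series (up to 46 uM) were applied to TMD8 dual-reporter cells for 4 h at 37C with doxycycline. Green/red ratio, after filter-overlap correction, defined %Activity; red signal alone was normalised to basal cells and zero luminescence.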
Potency is the fitted concentration of half-maximal effect.

| SMILES | activity change, negative = inhibition | Potency |
| --- | --- | --- |
| COc1ccc2c(c1)[nH]c1c(=O)n(CCc3cnc[nH]3)cnc12 | inconclusive: -25.3% |  |
| CCOc1ccc(NC(=O)CN(C)S(=O)(=O)c2ccc3c(c2)CCC(=O)N3)cc1 | inconclusive: 1.43% |  |
| CCc1ccc(-c2cc(C(=O)NN3CCN(C)CC3)c3ccccc3n2)cc1 |  | inconclusive: 18.4 µM [falling, partial curve] |
| COc1ccc2nc(NC(=O)NC3CCCCC3)sc2c1 | inconclusive: -20.5% |  |
| O=C(Oc1ccc(NC(=O)c2cc3c(cc2Br)OCO3)cc1)c1ccccc1 | inconclusive: -14.1% |  |
| O=C(N/N=C/c1ccccn1)c1cc(C2CC2)nc2ccccc12 |  | inconclusive: 35.5 µM [falling, single point] |
| Cn1ncc2c(O/N=C(\N)c3ccc(C(C)(C)C)cc3)ncnc21 | inconclusive: 1.52% |  |
| COc1ccccc1CNC(=O)c1ccc(-c2ccccc2C(F)(F)F)o1 | inactive: -11% |  |
| O=C(O)c1cc(N/N=C/c2ccc3c(c2)OCO3)ccc1Cl | inconclusive: 281% |  |
| Cc1cccc(CN2CCN(CCCc3ccccc3)CC2)c1 | inconclusive: 27.1% |  |
| CCc1nonc1NC(=O)COc1cc(C)c(Cl)c(C)c1 | inactive: 0.314% |  |
| CC(=O)c1sc(NC(=O)CCOc2ccccc2)nc1C | inconclusive: 2.58% |  |
| Cc1ccc2nc(NC(=O)c3cc(-c4ccco4)nc4ccccc34)sc2c1 | inactive: 5.43% |  |
| Cc1ccc(NC2=Nc3ccccc3CC2)cc1 | inconclusive: -24.7% |  |
| CCCCNC(=O)N1CCN(C(c2ccccc2)c2ccccc2)CC1 | inactive: -2.4% |  |
| CCOc1cc(/C=N/NC(N)=O)ccc1OC(=O)c1ccc(C)cc1 |  | inconclusive: 18.4 µM [falling, single point] |
| COCCNC(=S)N1CCC(Cc2ccccc2)CC1 | inactive: -3.1% |  |
| O=C(c1ccc(-n2cncn2)c([N+](=O)[O-])c1)N1CCN(S(=O)(=O)c2cccc(F)c2)CC1 | inactive: 3.93% |  |
| Cc1nn(-c2nc3ccccc3[nH]2)c(N)c1-c1ccccc1 |  | inconclusive: 29.1 µM [falling, single point] |
| Cc1cc2n(n1)SC(Nc1ccc(F)c(Cl)c1)N2 (stereo unspecified) | inconclusive: 3.57% |  |
| S=C(NCCC(c1ccccc1)c1ccccc1)Nc1ccc(Cl)cc1 | inconclusive: 18% |  |
| CCN(CC(=O)Nc1c(F)cccc1F)C(=O)/C=C/c1ccc(OCC#N)c(OC)c1 | inconclusive: 0.0558% |  |

Pulled by compound from above, two records:

| SMILES | activity change, negative = inhibition | Potency |
| --- | --- | --- |
| Cc1nn(-c2nc3ccccc3[nH]2)c(N)c1-c1ccccc1 |  | inconclusive: 29.1 µM [falling, single point] |
| O=C(N/N=C/c1ccccn1)c1cc(C2CC2)nc2ccccc12 |  | inconclusive: 35.5 µM [falling, single point] |

The list continues:

| SMILES | activity change, negative = inhibition | Potency |
| --- | --- | --- |
| Cc1cccc(NC(=O)CN2C(=O)NC(Cc3ccccc3)C2=O)c1 (stereo unspecified) | inconclusive: 7.71% |  |
| Cc1ccc(Cl)cc1N1CCN(C(=O)C2CCC(=O)N(C3CCCCCC3)C2)CC1 (stereo unspecified) | inconclusive: -4.03% |  |
| CCOC(=O)c1cnc(-n2nc(C)cc2C)nc1NCCc1ccccc1 | inconclusive: 5.13% |  |
| COCCCNC(=O)/C(C#N)=c1\s/c(=C\c2ccccc2OC(F)F)c(=O)n1CCCOC | inconclusive: -14.9% |  |
| Cc1cn(C2CC(OC(=O)C(C)C)C(CO)O2)c(=O)[nH]c1=O (stereo unspecified) | inconclusive: -0.461% |  |
| Cc1ccc(S(=O)(=O)N(C)C2(C)CCS(=O)(=O)C2)cc1 (stereo unspecified) | inconclusive: -13.5% |  |
| CCn1nc(NC(=O)c2cccs2)c2cc3ccccc3nc21 | inconclusive: -6.21% |  |
| O=C(Cn1c(=O)oc2ccccc21)NCc1ccccc1Cl |  | inconclusive: 3.55 µM [falling, full curve, poor fit] |
| COc1ccc(C(NC(=O)C2CCCCC2)c2c(O)ccc3ccccc23)cc1 (stereo unspecified) | inconclusive: 13.8% |  |
| O=C(NCCC1CCCCN1S(=O)(=O)c1cccs1)C(=O)Nc1ccc(F)cc1 (stereo unspecified) |  | inconclusive: 20.6 µM [falling, partial curve] |
| O=C1c2ccccc2C(=O)c2[nH]c(=O)[nH]c21 | inconclusive: 4.61% |  |
| CC#CC#Cc1cccc(=O)o1 | inconclusive: -6.14% |  |
| O=C(NC1CCN(Cc2ccccc2)CC1)c1ccccc1 | inactive: -0.612% |  |
| NC(=O)CN(N=Nc1cccc([N+](=O)[O-])c1)c1cccc([N+](=O)[O-])c1 | inconclusive: 19% |  |
| CCN1C(=O)[C@@H]2[C@H](C1=O)[C@@H]1C(=O)Nc3ccccc3C(=O)N1[C@@H]2c1cccc(C)c1 | inactive: -0.818% |  |
| CC1CN(C(=S)SCC(=O)c2ccccc2)CC(C)O1 (stereo unspecified) | inconclusive: 10.3% |  |
| O=C(COC(=O)c1c(Cl)ccc(Cl)c1Cl)NCC1CCCO1 (stereo unspecified) | inactive: 1.2% |  |
| N#Cc1c(-c2ccccc2)ccnc1Oc1ccccc1 | inconclusive: 13.4% |  |
| CCn1c(SCC(=O)Nc2ccc(C)cc2)nc(O)cc1=O | inactive: 7.63% |  |
| COc1ccc(Cl)cc1NC(=O)CSc1nc2sccc2c(=O)[nH]1 |  | inconclusive: 17.8 µM [falling, single point] |
| O=c1c([N+](=O)[O-])c(NC2CCCCC2)c2ccccc2n1-c1ccccc1 | inconclusive: 22.3% |  |
| CCOC(=O)c1cc(-c2ccccc2)sc1NC(=O)c1cc(OC)c(OC)c(OC)c1 | inconclusive: 8.15% |  |

| SMILES | activity change, negative = inhibition | Potency |
| --- | --- | --- |
| O=C(/C=C/c1ccco1)Nc1cc(Cl)ccc1C(=O)O |  | inconclusive: 5.8 µM [falling, single point] |
| CSc1nc2ccc(S(=O)(=O)N3CCOCC3)cc2s1 | inconclusive: 7.37% |  |
| Cc1cc(=O)n2c(C(=O)Nc3ccc(C)c(C)c3)c(C(=O)Nc3ccccc3)sc2n1 |  | inconclusive: 4.47 µM [falling, partial curve] |
| CCc1ccc(NC(=O)c2ccc(Cn3cc([N+](=O)[O-])cn3)cc2)cc1 | inconclusive: 1.05% |  |
| COc1cccc(NC(=S)NNC(=O)c2ccccc2OC(F)F)c1 |  | inconclusive: 22.4 µM [falling, single point] |
| c1cc(Nc2ncnc3sccc23)cc(-c2nnc3n2CCCCC3)c1 | inconclusive: -13.9% |  |
| COc1cccc(-c2cccc(NC(=O)C3CCN(Cc4nccs4)CC3)c2)c1 | inactive: -1.77% |  |
| Fc1ccc(CCN2CCN=C2Nc2ccccc2)cc1 | inconclusive: -6.17% |  |
| CCCCCCCCC#Cc1nc(C)ccc1OC | inconclusive: -0.171% |  |
| COc1cc(OC)c2c(=O)cc(-c3ccccc3)oc2c1 |  | inconclusive: 17.8 µM [falling, partial curve, poor fit] |
| c1ccc(CCNc2ccccc2)cc1 | inconclusive: 15.2% |  |
| CCOc1ccc(NS(=O)(=O)c2ccc3[nH]c(=O)oc3c2)cc1 | inconclusive: -1.79% |  |
| COc1ccc2nc(NC(=O)c3ccc(F)cc3)sc2c1 |  | inconclusive: 25.1 µM [falling, single point] |
| COc1cc(OC)nc(-n2ncc(OC)c(Br)c2=O)n1 | inconclusive: 4.29% |  |
| COc1ccc(NC(=O)c2cc3ccccc3cc2O)cc1 |  | inconclusive: 25.1 µM [falling, single point] |
| CC(Oc1ccc(Br)cc1Br)C(=O)Nc1cccnc1Cl (stereo unspecified) | inconclusive: 4.17% |  |
| COc1ccc(NC(=O)/C(C#N)=C/c2c(C)nn(-c3ccc(F)cc3)c2Cl)cc1OC |  | inconclusive: 29.1 µM [falling, single point] |
| N/C(=N\OC(=O)CCC1CCCC1)c1cccc([N+](=O)[O-])c1 | inconclusive: 23% |  |
| Cc1ccc(-n2c(=O)[nH]c3c(oc4ccccc43)c2=O)cc1 | inconclusive: 4.53% |  |
| COc1cc(C(=O)O/N=C(\N)c2ccc([N+](=O)[O-])cc2)cc(OC)c1OC | inconclusive: 1.06% |  |
| O=C(O)c1cc2ccc3ccccc3c2[nH]1 |  | inconclusive: 4.11 µM [rising, full curve] |
| O=C1OC(c2ccc(O)cc2)(c2ccc(O)cc2)c2ccccc21 |  | inconclusive: 31.6 µM [falling, single point] |

13 structures out of the list, ordered by number of heavy atoms, ascending:

| SMILES | activity change, negative = inhibition | Potency |
| --- | --- | --- |
| c1ccc(CCNc2ccccc2)cc1 | inconclusive: 15.2% |  |
| O=C(O)c1cc2ccc3ccccc3c2[nH]1 |  | inconclusive: 4.11 µM [rising, full curve] |
| CCCCCCCCC#Cc1nc(C)ccc1OC | inconclusive: -0.171% |  |
| COc1cc(OC)nc(-n2ncc(OC)c(Br)c2=O)n1 | inconclusive: 4.29% |  |
| COc1cc(OC)c2c(=O)cc(-c3ccccc3)oc2c1 |  | inconclusive: 17.8 µM [falling, partial curve, poor fit] |
| CCn1c(SCC(=O)Nc2ccc(C)cc2)nc(O)cc1=O | inactive: 7.63% |  |
| CCOc1ccc(NS(=O)(=O)c2ccc3[nH]c(=O)oc3c2)cc1 | inconclusive: -1.79% |  |
| O=C1OC(c2ccc(O)cc2)(c2ccc(O)cc2)c2ccccc21 |  | inconclusive: 31.6 µM [falling, single point] |
| COc1cccc(NC(=S)NNC(=O)c2ccccc2OC(F)F)c1 |  | inconclusive: 22.4 µM [falling, single point] |
| c1cc(Nc2ncnc3sccc23)cc(-c2nnc3n2CCCCC3)c1 | inconclusive: -13.9% |  |
| COc1cc(C(=O)O/N=C(\N)c2ccc([N+](=O)[O-])cc2)cc(OC)c1OC | inconclusive: 1.06% |  |
| COc1cccc(-c2cccc(NC(=O)C3CCN(Cc4nccs4)CC3)c2)c1 | inactive: -1.77% |  |
| Cc1cc(=O)n2c(C(=O)Nc3ccc(C)c(C)c3)c(C(=O)Nc3ccccc3)sc2n1 |  | inconclusive: 4.47 µM [falling, partial curve] |

Next compounds

| SMILES | activity change, negative = inhibition | Potency |
| --- | --- | --- |
| c1ccc(OCCN2CCN(Cc3nc(-c4ccc5c(c4)OCO5)no3)CC2)cc1 | inconclusive: 0.162% |  |
| COc1ccc(CNC(=O)c2c(N)n(CCCN3CCOCC3)c3nc4ccccc4nc23)cc1 | inconclusive: 13.1% |  |
| COC(=O)c1cnc(Nc2cccc(C(F)(F)F)c2)c([N+](=O)[O-])c1 | inconclusive: 9.8% |  |
| CCOC(=O)Cc1csc(NC(=O)Cc2ccccc2)n1 | inconclusive: 15.6% |  |
| COc1cccc(-c2cc(C(=O)N3CC4(C)CC3CC(C)(C)C4)no2)c1 (stereo unspecified) | inactive: -0.984% |  |
| Cc1ccc(-c2cc(C(=O)NCC3CCCO3)no2)cc1 (stereo unspecified) |  | inconclusive: 16.4 µM [falling, partial curve] |
| CCC(CC)C(=O)Nc1c2c(nn1-c1ccc(F)cc1)CS(=O)(=O)C2 | inactive: 5.26% |  |
| CCOC(=O)c1c(C)[nH]c(C)c1S(=O)(=O)NCCN1CCN(c2cc(Cl)ccc2C)CC1 | inconclusive: -1.1% |  |
| COc1ccc(NC(=O)CN2CCN(S(=O)(=O)N(C)C)CC2)cc1 | inconclusive: -1.18% |  |
| Cn1cccc1Cc1nnc(SCC(=O)N2CCCC2)n1CCc1ccccc1 | inconclusive: 13.8% |  |
| CN(C)S(=O)(=O)c1ccc(Cl)c(C(=O)NC2CCCCCCC2)c1 | inactive: -1.2% |  |
| COc1ccc(NC(=O)C2C3CCC(O3)C2C(=O)O)cc1OC (stereo unspecified) | inconclusive: 4.26% |  |
| N#CC1C(C#N)N2CCCN2C1c1ccc(Cl)cc1 (stereo unspecified) | inactive: -1.79% |  |
| Cc1cc(C)c(C(=O)NC2CC(C)(C)Cc3c2cnn3-c2cccc(F)c2)[nH]1 (stereo unspecified) | inconclusive: -108% |  |
| COC(=O)[C@H](CCSC)NC(=O)Nc1ccc(C)c(C)c1 | inconclusive: 1.25% |  |
| Cc1cccc(N=Nc2c(C)c(C#N)c(O)[nH]c2=O)c1 | inactive: 8.05% |  |
| COc1ccc(/C=N\NC(=O)C2=NNC(=O)C2C)cc1 (stereo unspecified) | inconclusive: 348% |  |
| Cc1cccc(NC(=S)NNC(=S)NCc2ccccc2)c1 | inactive: -9.77% |  |
| CN1/C(=C/C(=O)c2cccs2)Sc2ccccc21 | inactive: -35.3% |  |
| CN(C(=O)CN1C(=O)S/C(=C\c2ccccc2)C1=O)C1CCS(=O)(=O)C1 (stereo unspecified) | inactive: -15.9% |  |
